# Assay results from article PMC7778598.
# Chains of the proteins cited; added tags and fusions are not shown.
# UniProt P84077: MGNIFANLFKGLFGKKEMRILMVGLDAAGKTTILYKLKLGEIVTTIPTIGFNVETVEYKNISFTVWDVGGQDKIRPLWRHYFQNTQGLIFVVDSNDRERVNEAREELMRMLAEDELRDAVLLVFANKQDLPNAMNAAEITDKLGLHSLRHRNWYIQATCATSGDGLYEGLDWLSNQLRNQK
# UniProt P46940: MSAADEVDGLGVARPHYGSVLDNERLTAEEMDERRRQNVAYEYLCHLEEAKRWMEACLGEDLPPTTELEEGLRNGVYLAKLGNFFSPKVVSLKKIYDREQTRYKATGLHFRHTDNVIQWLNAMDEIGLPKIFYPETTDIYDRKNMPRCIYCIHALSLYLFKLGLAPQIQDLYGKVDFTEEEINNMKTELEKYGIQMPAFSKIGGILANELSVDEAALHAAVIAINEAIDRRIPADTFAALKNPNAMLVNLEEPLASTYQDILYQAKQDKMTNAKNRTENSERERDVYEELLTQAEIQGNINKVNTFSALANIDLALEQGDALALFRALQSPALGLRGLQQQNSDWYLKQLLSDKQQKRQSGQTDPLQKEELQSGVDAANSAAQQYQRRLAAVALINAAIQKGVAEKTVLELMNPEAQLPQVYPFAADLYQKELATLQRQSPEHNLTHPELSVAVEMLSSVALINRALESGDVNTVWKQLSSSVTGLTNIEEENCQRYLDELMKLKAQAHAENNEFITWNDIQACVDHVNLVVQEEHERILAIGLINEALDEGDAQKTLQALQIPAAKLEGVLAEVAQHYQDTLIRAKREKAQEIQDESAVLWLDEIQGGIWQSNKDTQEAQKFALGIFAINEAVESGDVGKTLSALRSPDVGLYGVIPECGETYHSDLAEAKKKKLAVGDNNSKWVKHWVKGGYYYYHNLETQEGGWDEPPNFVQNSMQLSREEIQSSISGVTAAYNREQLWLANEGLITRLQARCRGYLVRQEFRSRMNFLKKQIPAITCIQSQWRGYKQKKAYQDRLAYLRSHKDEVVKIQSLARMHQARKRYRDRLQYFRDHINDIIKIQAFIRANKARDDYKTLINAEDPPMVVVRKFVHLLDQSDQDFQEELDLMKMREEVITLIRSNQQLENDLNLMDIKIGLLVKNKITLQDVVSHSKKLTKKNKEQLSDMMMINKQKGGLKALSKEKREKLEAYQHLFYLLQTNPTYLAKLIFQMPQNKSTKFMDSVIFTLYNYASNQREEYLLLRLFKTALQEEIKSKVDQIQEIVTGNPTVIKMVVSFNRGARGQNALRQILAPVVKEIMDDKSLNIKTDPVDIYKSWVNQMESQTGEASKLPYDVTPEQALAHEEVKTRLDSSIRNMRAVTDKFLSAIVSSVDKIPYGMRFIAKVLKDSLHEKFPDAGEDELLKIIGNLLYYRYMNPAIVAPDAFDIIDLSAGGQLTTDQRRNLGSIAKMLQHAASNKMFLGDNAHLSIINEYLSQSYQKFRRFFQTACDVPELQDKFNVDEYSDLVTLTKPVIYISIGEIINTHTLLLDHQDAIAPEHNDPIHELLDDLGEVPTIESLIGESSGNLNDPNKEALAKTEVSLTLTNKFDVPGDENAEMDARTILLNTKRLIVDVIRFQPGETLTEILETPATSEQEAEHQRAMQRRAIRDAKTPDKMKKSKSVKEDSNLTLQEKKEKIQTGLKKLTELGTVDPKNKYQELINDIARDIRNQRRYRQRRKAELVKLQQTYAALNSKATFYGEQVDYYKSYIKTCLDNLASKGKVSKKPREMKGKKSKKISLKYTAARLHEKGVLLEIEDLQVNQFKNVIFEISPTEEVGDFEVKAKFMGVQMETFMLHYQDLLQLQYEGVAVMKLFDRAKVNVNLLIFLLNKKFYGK
# Results are given in words; binding and its absence hold for the method and conditions named. Binding seen in cells or lysates may run through a third protein. Here binding means that the protein was enriched with, or labelled near, the bait; the list need not be complete.
# Molecular target: ADP-ribosylation factor 1 (human (in HCT116; endogenous or overexpressed not stated)) (UniProt P84077)
# Experiment: affinity purification with mass spectrometry; ARF1 immunoprecipitates from HCT116 cells separated on a gel; interacting proteins identified by mass spectrometry
substance,measurement,value
IQ-domain GTPase-activating protein 1 (from UniProt P46940 1-1657),binding,binds
